± gives the standard deviation of the averaged measurements. What follows is the remainder of the data, with few or none of the lowest values.
tested on: TE10; experiment: relative cell viability vs DMSO, compound alone (fraction); TE10 is an esophageal squamous carcinoma line; higher = less cytotoxic; conditions: 2 µM; 48 h
Experimental: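 TE10 ESCC cells (1,000/well, 384-well plates) were treated with Selleck bioactive library compounds at 2 uM alone for 48 h. Viability was read by CellTiter-Glo and expressed relative to DMSO wells. Two technical replicates (A, B).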

Row | SMILES | relative cell viability
1 | Cc1c(C(=O)NN2CCCCC2)nn(-c2ccc(Cl)cc2Cl)c1-c1ccc(I)cc1 | 1.1 ± 0.028

Source: the supplement of paper PMC10670038
